The other results are listed elsewhere or left out. Many values rest on one well or one pass, so single values are uncertain.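 Imaging used 1,536-well plates; nuclei positive for cleaved PARP by antibody were divided by total DNA-stained nuclei to yield the apoptosis fraction. Doses for screening kept most cells viable, and cell lines differ markedly in resting and induced cleaved-PARP levels.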
What was measured:
Assay in all cases: cleaved PARP positive nuclei fraction relative to DMSO control; melanoma cells; higher = more apoptosis
Details in all cases: library dose: low library concentration; 72 h
MZ2-MEL = system: MZ2-MEL
MeWo = system: MeWo
RPMI7951 = system: RPMI7951
RVH-421 = system: RVH-421
SkMel28 = system: SkMel28
SkMel2 = system: SkMel2
SkMel30 = system: SkMel30
SkMel5 = system: SkMel5
UACC257 = system: UACC257
UACC62 = system: UACC62
WM115 = system: WM115
WM1716 = system: WM1716
WM1745 = system: WM1745
WM3526 = system: WM3526
WM3619 = system: WM3619
WM451Lu = system: WM451Lu

SMILES	cleaved PARP positive nuclei fraction (MZ2-MEL)	cleaved PARP positive nuclei fraction (MeWo)	cleaved PARP positive nuclei fraction (RPMI7951)	cleaved PARP positive nuclei fraction (RVH-421)	cleaved PARP positive nuclei fraction (SkMel28)	cleaved PARP positive nuclei fraction (SkMel2)	cleaved PARP positive nuclei fraction (SkMel30)	cleaved PARP positive nuclei fraction (SkMel5)	cleaved PARP positive nuclei fraction (UACC257)	cleaved PARP positive nuclei fraction (UACC62)	cleaved PARP positive nuclei fraction (WM115)	cleaved PARP positive nuclei fraction (WM1716)	cleaved PARP positive nuclei fraction (WM1745)	cleaved PARP positive nuclei fraction (WM3526)	cleaved PARP positive nuclei fraction (WM3619)	cleaved PARP positive nuclei fraction (WM451Lu)
N.N.[Cl][Pt][Cl] [cisplatin] + COc1cc(Nc2ncc(F)c(Nc3ccc4c(n3)NC(=O)C(C)(C)O4)n2)cc(OC)c1OC [Tamatinib] (first compound 1.6 µM, partner dose 0.4 µM)	62.4%	106%	53.2%	150%	102%	109%	79.7%	41.7%	136%	78.6%	143%	139%	128%	42.8%	130%	96.3%
C[C@@H](N)c1ccc(C(=O)Nc2ccnc3[nH]ccc23)cc1 + O=C(Oc1ccc([N+](=O)[O-])cc1)N1CCC(C(O)(c2ccc3c(c2)OCO3)c2ccc3c(c2)OCO3)CC1 [JZL184] (first compound 0.4 µM, partner dose 1 µM)	209%	107%	231%	91.1%	212%	24.3%	78.9%	496%	195%	151%	78.5%	288%	113%	47.5%	105%	68.9%
Cn1cc(C2=C(c3cn(C4CCN(Cc5ccccn5)CC4)c4ccccc34)C(=O)NC2=O)c2ccccc21 [Enzastaurin] + COc1cc(N2CCC(N3CCN(C)CC3)CC2)ccc1Nc1ncc(Cl)c(Nc2ccccc2S(=O)(=O)C(C)C)n1 [NVP-TAE684] (first compound 0.8 µM, partner dose 0.08 µM)	21.9%	85.5%	39.5%	97.1%	73.2%	114%	85.3%	93.7%	265%	45.6%	212%	255%	124%	165%	88.8%	148%
C=C(c1ccc(C(=O)O)cc1)c1cc2c(cc1C)C(C)(C)CCC2(C)C [Bexarotene] + Cc1cc(SCc2sc(-c3ccc(C(F)(F)F)c(F)c3)nc2C)ccc1OCC(=O)O [GW0742] (first compound 2 µM, partner dose 2 µM)	151%	26.3%	173%	173%	195%	204%	211%	164%	30.5%	79.4%	38.1%	94.9%	91.8%	56.2%	87%	113%
C[C@@H](Oc1cc(-c2cnn(C3CCNCC3)c2)cnc1N)c1c(Cl)ccc(F)c1Cl [Crizotinib] + C/C(O)=C(\C#N)C(=O)Nc1cc(Br)ccc1Br [LFM-A13] (first compound 0.2 µM, partner dose 2 µM)	51.2%	32.8%	49.2%	61.4%	72.7%	44.7%	315%	239%	50.2%	84.2%	93.3%	69.3%	85.6%	72.9%	83.6%	165%
Cc1cc(Nc2cc(N3CCN(C)CC3)nc(/C=C/c3ccccc3)n2)n[nH]1 + Cc1cc(SCc2sc(-c3ccc(C(F)(F)F)c(F)c3)nc2C)ccc1OCC(=O)O [GW0742] (first compound 0.04 µM, partner dose 2 µM)	264%	116%	132%	93.6%	93.3%	175%	130%	74.3%	45.9%	110%	129%	89.2%	92.4%	59%	105%	32.3%
OCc1c[nH]c2ccccc12 [Indole-3-carbinol] + O=C(Oc1ccc([N+](=O)[O-])cc1)N1CCC(C(O)(c2ccc3c(c2)OCO3)c2ccc3c(c2)OCO3)CC1 [JZL184] (first compound 0.8 µM, partner dose 1 µM)	46.4%	27.7%	30.5%	223%	88.8%	93.4%	74.2%	78.6%	117%	88.2%	154%	70.1%	85.6%	81%	78.5%	34.3%
Cc1cn(-c2cc(NC(=O)c3ccc(C)c(Nc4nccc(-c5cccnc5)n4)c3)cc(C(F)(F)F)c2)cn1 [nilotinib] + C/C(O)=C(\C#N)C(=O)Nc1cc(Br)ccc1Br [LFM-A13] (first compound 0.2 µM, partner dose 2 µM)	69.9%	144%	91%	84.4%	200%	96.5%	164%	74.2%	95.8%	98.8%	226%	184%	87.4%	53.5%	86.3%	88.4%
Nc1ncn([C@H]2C[C@H](O)[C@@H](CO)O2)c(=O)n1 [decitabine] + Cc1cc(SCc2sc(-c3ccc(C(F)(F)F)c(F)c3)nc2C)ccc1OCC(=O)O [GW0742] (first compound 0.1 µM, partner dose 2 µM)	95.2%	55.6%	85.6%	85.4%	184%	136%	224%	65.8%	105%	87.5%	125%	58.4%	107%	65%	80%	121%
CC(C)C[C@H](NC(=O)[C@H](Cc1ccccc1)NC(=O)c1cnccn1)B(O)O [Bortezomib] + C/C(O)=C(\C#N)C(=O)Nc1cc(Br)ccc1Br [LFM-A13] (first compound 0.001 µM, partner dose 2 µM)	202%	67.2%	30.8%	57.3%	163%	35%	103%	72.9%	247%	218%	98.1%	608%	112%	177%	400%	82.4%
O=C(O)[C@@H]1[O][Sb](=[O])([O][Sb]2(=[O])[O][C@H]([C@H](O)CO)[C@H](O)[C@H](C(=O)O)[O]2)[O][C@H]([C@H](O)CO)[C@@H]1O (stereo partly drawn) [stibogluconate] + C/C(O)=C(\C#N)C(=O)Nc1cc(Br)ccc1Br [LFM-A13] (first compound 2 µM, partner dose 2 µM)	73.8%	25.8%	47%	84.5%	96.1%	71.6%	77.9%	68.5%	204%	90.6%	249%	163%	87.3%	77.5%	81.7%	64.4%
N.N.[Cl][Pt][Cl] [cisplatin] + Oc1nc(-c2ccc(C(F)(F)F)cc2)nc2c1CSCC2 [XAV939] (first compound 1.6 µM, partner dose 2 µM)	87.2%	117%	107%	77.6%	241%	74.4%	136%	82.9%	70.8%	142%	191%	109%	91.6%	83.2%	117%	112%
C[C@@H](Oc1cc(-c2cnn(C3CCNCC3)c2)cnc1N)c1c(Cl)ccc(F)c1Cl [Crizotinib] + Cc1cc(SCc2sc(-c3ccc(C(F)(F)F)c(F)c3)nc2C)ccc1OCC(=O)O [GW0742] (first compound 0.2 µM, partner dose 2 µM)	58.4%	124%	65.4%	39.9%	204%	154%	46%	159%	132%	93.9%	357%	105%	81.5%	67%	92.6%	58.6%
CCCCCCCCCCCCCCCCCCOP(=O)([O-])OC1CC[N+](C)(C)CC1 [Perifosine] + Cc1cc(SCc2sc(-c3ccc(C(F)(F)F)c(F)c3)nc2C)ccc1OCC(=O)O [GW0742] (first compound 0.4 µM, partner dose 2 µM)	18.8%	77.6%	91.5%	126%	81.4%	65.1%	105%	138%	164%	202%	65.7%	117%	104%	160%	96.9%	104%
Cn1cc(C2=C(c3cn(C4CCN(Cc5ccccn5)CC4)c4ccccc34)C(=O)NC2=O)c2ccccc21 [Enzastaurin] + CCCCCCCCCCCC1=C(O)C(=O)C=C(O)C1=O [Embelin] (first compound 0.8 µM, partner dose 1.2 µM)	129%	68%	72.5%	102%	130%	184%	157%	155%	84.1%	103%	121%	187%	90.8%	147%	94.9%	53.8%
Nc1ccn([C@@H]2O[C@H](CO)[C@@H](O)C2(F)F)c(=O)n1 [gemcitabine] + O=C(Oc1ccc([N+](=O)[O-])cc1)N1CCC(C(O)(c2ccc3c(c2)OCO3)c2ccc3c(c2)OCO3)CC1 [JZL184] (first compound 0.0004 µM, partner dose 1 µM)	152%	44.1%	36.2%	32.6%	135%	86.9%	83.5%	89.7%	84.2%	35.8%	36%	103%	152%	65.5%	118%	119%
Cc1cn(-c2cc(NC(=O)c3ccc(C)c(Nc4nccc(-c5cccnc5)n4)c3)cc(C(F)(F)F)c2)cn1 [nilotinib] + O=C(Oc1ccc([N+](=O)[O-])cc1)N1CCC(C(O)(c2ccc3c(c2)OCO3)c2ccc3c(c2)OCO3)CC1 [JZL184] (first compound 0.2 µM, partner dose 1 µM)	117%	228%	46.2%	99.9%	59.3%	148%	29.2%	82.1%	195%	90.1%	64.2%	121%	91.5%	88.5%	93.4%	28.5%
Cn1cc(C2=C(c3cn(C4CCN(Cc5ccccn5)CC4)c4ccccc34)C(=O)NC2=O)c2ccccc21 [Enzastaurin] + Cc1cc(N2CCOCC2)cc2[nH]c(-c3c(NC[C@@H](O)c4cccc(Cl)c4)cc[nH]c3=O)nc12 [BMS536924] (first compound 0.8 µM, partner dose 0.2 µM)	99.6%	139%	96.2%	97.4%	61%	163%	71.9%	72.2%	96.3%	114%	83.4%	43.4%	238%	58.8%	101%	93.5%

Source: the supplement of paper PMC4604168 (melanoma cell lines)
